Laboratory results taken from the supplement of paper PMC10849652.
The list shows a part of the results.

Protein sequences, listed by entry. Tags and fused reporters are not part of them. Lines headed by an entry give the natural chain unless they say otherwise; changes in a name come on top.
UniProt P49773: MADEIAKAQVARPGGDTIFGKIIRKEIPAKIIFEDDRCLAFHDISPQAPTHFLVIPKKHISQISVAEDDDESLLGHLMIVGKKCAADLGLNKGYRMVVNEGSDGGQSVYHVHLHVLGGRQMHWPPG
UniProt H0YH80: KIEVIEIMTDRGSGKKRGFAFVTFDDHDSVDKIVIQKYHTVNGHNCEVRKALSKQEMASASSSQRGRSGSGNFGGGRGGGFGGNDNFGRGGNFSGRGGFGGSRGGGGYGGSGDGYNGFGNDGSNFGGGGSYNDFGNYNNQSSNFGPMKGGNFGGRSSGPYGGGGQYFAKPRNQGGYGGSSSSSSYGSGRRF
UniProt Q1KMD3: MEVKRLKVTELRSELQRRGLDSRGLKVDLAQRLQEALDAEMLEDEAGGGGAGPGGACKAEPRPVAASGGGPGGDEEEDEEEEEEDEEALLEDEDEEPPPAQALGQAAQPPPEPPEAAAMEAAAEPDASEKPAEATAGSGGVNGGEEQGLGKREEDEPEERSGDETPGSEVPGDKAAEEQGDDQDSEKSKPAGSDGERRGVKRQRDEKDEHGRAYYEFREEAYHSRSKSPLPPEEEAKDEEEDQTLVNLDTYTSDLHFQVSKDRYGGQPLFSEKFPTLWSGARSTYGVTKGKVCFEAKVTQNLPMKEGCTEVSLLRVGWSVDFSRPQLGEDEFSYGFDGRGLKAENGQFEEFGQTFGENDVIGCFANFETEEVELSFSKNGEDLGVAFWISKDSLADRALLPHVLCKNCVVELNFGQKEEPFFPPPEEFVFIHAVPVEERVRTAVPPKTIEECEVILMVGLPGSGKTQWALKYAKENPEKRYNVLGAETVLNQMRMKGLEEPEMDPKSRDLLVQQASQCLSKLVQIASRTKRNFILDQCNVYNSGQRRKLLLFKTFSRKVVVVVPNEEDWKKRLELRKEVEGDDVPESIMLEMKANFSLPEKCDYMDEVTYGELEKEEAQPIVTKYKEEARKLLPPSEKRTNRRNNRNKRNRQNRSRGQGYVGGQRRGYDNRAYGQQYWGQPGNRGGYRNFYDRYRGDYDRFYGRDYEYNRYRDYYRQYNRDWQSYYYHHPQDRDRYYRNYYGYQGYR
UniProt P11142, whole entry, looked up: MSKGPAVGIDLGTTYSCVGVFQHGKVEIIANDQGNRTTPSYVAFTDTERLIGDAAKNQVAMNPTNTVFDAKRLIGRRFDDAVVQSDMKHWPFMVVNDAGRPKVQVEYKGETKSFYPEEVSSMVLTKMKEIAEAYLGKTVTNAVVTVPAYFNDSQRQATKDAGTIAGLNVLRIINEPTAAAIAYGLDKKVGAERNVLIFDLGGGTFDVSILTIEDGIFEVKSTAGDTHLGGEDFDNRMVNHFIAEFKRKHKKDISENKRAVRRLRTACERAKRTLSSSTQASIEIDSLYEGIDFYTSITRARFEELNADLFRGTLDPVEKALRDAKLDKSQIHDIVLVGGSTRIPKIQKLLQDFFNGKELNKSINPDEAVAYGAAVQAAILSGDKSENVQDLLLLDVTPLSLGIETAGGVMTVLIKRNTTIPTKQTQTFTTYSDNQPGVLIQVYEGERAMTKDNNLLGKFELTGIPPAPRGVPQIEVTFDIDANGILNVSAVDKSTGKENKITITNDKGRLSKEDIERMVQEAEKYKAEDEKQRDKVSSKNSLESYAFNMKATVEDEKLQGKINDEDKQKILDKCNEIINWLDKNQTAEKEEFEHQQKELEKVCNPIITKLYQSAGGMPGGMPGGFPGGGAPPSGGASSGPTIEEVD
UniProt O75146: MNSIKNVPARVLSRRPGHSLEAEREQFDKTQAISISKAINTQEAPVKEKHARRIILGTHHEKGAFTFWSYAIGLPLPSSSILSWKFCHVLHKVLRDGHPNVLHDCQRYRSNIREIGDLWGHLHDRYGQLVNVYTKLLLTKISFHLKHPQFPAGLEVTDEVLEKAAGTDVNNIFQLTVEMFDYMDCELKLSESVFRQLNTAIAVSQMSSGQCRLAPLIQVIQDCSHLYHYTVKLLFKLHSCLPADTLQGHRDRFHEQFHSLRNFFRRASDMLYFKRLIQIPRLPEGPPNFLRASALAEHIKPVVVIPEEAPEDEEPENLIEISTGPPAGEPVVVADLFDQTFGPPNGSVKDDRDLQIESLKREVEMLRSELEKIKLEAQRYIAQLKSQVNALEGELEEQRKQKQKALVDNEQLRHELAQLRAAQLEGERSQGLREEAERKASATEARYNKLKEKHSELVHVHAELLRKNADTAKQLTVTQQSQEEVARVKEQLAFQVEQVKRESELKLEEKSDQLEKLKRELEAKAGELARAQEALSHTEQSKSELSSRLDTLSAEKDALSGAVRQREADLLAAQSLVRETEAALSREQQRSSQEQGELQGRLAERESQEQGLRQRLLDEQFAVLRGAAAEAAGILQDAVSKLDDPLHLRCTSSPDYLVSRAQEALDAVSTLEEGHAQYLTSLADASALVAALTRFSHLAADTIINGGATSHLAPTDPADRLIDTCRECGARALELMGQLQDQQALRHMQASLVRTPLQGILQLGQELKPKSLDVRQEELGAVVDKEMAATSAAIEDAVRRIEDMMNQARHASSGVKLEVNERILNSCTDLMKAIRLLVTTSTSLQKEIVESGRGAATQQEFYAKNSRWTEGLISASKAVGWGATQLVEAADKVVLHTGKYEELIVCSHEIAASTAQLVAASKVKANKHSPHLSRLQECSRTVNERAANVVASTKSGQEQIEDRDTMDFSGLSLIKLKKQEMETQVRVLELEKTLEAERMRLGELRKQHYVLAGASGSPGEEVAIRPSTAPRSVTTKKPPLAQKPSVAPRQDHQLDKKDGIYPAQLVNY
UniProt O14964, whole entry, looked up: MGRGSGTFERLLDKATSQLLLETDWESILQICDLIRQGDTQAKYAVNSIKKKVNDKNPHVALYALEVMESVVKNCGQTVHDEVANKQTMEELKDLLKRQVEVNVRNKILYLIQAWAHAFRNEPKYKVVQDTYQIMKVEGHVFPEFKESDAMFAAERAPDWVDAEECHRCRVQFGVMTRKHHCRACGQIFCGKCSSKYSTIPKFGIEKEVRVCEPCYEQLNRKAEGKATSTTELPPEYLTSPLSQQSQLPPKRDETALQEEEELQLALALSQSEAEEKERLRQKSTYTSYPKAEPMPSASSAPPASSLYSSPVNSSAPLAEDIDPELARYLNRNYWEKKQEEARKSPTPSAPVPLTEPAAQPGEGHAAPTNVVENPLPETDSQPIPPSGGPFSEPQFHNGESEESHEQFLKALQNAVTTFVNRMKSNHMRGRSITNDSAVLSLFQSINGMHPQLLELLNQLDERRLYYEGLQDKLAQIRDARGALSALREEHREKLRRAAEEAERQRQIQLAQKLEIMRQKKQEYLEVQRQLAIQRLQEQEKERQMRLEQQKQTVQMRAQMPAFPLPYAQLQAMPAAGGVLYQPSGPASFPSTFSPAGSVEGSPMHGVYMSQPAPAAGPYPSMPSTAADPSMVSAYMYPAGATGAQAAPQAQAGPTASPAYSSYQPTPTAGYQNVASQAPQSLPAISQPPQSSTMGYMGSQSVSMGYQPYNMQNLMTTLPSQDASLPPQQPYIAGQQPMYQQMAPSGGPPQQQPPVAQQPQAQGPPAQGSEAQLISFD
UniProt P09429: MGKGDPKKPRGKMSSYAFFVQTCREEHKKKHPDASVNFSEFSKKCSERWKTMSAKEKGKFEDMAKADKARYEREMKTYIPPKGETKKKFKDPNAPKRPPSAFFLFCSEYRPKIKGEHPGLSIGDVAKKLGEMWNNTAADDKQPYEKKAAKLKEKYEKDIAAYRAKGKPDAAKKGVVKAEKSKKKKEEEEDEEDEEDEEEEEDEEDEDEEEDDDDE
UniProt Q8TCT9: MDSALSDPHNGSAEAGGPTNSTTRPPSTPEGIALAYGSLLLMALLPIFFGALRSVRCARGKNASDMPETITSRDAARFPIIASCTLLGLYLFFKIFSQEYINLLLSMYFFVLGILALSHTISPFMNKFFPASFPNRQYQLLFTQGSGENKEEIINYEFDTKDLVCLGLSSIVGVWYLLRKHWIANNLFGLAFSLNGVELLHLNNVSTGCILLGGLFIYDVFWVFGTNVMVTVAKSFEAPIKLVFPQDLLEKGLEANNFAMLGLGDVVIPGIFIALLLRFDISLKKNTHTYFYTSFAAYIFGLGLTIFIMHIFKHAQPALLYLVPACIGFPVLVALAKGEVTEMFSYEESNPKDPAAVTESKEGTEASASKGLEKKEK
UniProt P14735, whole entry, looked up: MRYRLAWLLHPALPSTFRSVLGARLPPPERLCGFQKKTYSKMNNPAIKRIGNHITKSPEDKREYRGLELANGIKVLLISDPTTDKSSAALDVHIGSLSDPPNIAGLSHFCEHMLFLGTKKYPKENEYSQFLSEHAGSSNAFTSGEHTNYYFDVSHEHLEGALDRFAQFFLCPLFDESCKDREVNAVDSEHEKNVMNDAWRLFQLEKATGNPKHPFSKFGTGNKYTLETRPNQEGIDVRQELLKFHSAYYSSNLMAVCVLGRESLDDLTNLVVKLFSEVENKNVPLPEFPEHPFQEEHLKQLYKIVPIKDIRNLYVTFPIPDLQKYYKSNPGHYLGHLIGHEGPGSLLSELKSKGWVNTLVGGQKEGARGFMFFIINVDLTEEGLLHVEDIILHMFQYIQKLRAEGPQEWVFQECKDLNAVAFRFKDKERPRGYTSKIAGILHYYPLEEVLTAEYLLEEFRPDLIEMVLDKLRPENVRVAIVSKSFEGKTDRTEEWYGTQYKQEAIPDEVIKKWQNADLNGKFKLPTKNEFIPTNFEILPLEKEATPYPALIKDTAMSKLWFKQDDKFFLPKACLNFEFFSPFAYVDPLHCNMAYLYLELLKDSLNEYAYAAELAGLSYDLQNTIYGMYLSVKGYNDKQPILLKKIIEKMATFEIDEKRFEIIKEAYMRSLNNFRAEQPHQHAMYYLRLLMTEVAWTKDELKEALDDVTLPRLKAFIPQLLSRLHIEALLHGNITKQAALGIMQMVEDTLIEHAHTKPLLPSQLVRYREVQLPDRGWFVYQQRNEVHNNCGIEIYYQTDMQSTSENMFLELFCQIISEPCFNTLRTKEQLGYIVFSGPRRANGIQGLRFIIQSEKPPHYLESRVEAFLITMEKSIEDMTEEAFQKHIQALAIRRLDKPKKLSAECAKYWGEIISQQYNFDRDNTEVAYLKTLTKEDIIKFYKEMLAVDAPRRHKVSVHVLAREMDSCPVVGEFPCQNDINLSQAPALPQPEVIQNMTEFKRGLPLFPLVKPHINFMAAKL
UniProt P50747: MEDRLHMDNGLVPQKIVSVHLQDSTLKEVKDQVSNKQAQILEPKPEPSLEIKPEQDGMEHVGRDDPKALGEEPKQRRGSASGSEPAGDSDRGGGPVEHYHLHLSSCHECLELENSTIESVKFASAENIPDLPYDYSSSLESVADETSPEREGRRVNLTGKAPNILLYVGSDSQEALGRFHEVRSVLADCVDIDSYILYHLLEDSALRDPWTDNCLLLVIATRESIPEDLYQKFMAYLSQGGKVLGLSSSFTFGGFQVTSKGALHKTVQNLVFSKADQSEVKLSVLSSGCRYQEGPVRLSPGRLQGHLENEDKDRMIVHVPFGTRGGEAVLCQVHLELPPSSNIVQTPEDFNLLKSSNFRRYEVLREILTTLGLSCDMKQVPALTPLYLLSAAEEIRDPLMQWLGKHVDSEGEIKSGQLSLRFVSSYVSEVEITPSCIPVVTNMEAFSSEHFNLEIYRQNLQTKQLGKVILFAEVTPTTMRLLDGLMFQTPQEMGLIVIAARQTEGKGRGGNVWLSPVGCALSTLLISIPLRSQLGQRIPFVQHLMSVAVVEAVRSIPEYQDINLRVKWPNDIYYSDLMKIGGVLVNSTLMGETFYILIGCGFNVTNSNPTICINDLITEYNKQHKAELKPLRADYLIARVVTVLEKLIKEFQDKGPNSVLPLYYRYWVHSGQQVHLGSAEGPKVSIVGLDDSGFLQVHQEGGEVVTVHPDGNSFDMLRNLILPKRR
UniProt Q6DN03, whole entry, looked up: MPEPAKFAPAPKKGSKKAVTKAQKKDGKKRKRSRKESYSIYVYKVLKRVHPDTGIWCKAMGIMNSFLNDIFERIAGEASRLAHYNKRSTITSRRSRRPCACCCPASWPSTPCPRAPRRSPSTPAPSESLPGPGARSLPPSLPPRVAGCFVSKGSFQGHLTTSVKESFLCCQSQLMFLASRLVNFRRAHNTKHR
UniProt Q15651: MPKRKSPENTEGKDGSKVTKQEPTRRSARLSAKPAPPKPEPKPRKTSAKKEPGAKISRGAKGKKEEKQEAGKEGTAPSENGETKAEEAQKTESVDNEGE
UniProt Q3SXM5: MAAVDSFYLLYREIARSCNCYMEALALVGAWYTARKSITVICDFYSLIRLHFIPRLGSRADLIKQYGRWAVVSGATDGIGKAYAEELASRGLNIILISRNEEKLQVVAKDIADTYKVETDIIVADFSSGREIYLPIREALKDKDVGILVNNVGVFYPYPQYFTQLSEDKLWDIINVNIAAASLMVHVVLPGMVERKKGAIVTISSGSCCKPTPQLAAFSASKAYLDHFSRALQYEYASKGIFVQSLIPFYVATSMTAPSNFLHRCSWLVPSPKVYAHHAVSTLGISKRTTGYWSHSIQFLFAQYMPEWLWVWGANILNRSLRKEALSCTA

Each target was assayed with NC(=O)Nc1cc(-c2cccc(F)c2)sc1C(=O)N[C@H]1CCCNC1 (assay: log2 fold change, soluble protein after heating vs DMSO (PISA); higher = thermal stabilisation; K562 cells, 10 uM, 30 min; active = over 0.2 and 3.5 SD of the protein, either way, in both replicates (recomputed)).
Procedure, shortened: (§1)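 Thermal stability values are relative to control samples and come from duplicates. They are expressed as log2 fold changes. For measurement, K562 cells (2×10^6 cells/mL) received 10 μM compound for 30 min, and aliquots were heated for 3 min over 48°C-58°C, pooled, and extracted at 4°C in PBS with 0.5% NP-40. Soluble protein, the supernatant after 21,000xg for 90 min, was quantified by TMTpro 16plex LC-MS/MS with equalised channel sums.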

log2 fold change, inactive:
HIRIP3 (UniProt Q9BW71) -0.013
HMBS (UniProt P08397) 0.017
HMGCL (UniProt P35914) 0.122
HINT1 (UniProt P49773) -0.053
HNRNPA1 (UniProt H0YH80) 0.111
HYOU1, A0A494C039 -0.09
HIP1 (UniProt O00291) -0.038
HNRNPUL2 (UniProt Q1KMD3) -0.04
HSD17B4 (UniProt P51659) -0.033
HSPA8 (UniProt P11142) -0.006
HSPA14 (UniProt Q0VDF9) -0.053
HIP1R (UniProt O75146) -0.032
HSD17B12 (UniProt Q53GQ0) -0.031
HMGCS1 (UniProt Q01581) -0.023
HGS (UniProt O14964) -0.033
HMGB1 (UniProt P09429) 0.077
HM13 isoform 2 (UniProt Q8TCT9) 0.034
HNRNPK isoform 2 (UniProt P61978) -0.045
HSPA6 (UniProt P17066) -0.02
HMGN4 (UniProt O00479) 0.735
HSPA8 (UniProt E9PN89) -0.317
IDE (UniProt P14735) 0.012
HNRNPDL (UniProt O14979) -0.026
HUWE1 (UniProt Q7Z6Z7) 0.021
HSPA4L (UniProt O95757) -0.047
HMGN5 (UniProt Q5JSK9) -0.202
HLCS (UniProt P50747) -0.007
HIST2H2BC (UniProt Q6DN03) 0.117
HHEX (UniProt Q03014) 0.04
HMGN3 (UniProt Q15651) -0.147
HTD2 (UniProt P86397) -0.099
HSDL1 (UniProt Q3SXM5) -0.018
HTATIP2 isoform 3 (UniProt Q9BUP3) -0.047

Each target was assayed with NC(=O)c1cnc(N[C@@H]2CCCC[C@@H]2N)nc1Nc1cccc(-n2nccn2)c1 in the same assay as above.
Procedure, shortened: as §1

log2 fold change, inactive:
HIRIP3 (UniProt Q9BW71) -0.053
HMBS (UniProt P08397) 0.008
HMGCL (UniProt P35914) 0.021
HINT1 (UniProt P49773) -0.083
HNRNPA1 (UniProt H0YH80) 0.142
HYOU1, A0A494C039 0.137
HIP1 (UniProt O00291) 0.035
HNRNPUL2 (UniProt Q1KMD3) 0.02
HSD17B4 (UniProt P51659) -0.048
HSPA8 (UniProt P11142) 0.011
HSPA14 (UniProt Q0VDF9) -0.057
HIP1R (UniProt O75146) -0.001
HSD17B12 (UniProt Q53GQ0) 0.005
HMGCS1 (UniProt Q01581) -0.002
HGS (UniProt O14964) -0.074
HMGB1 (UniProt P09429) 0.108
HM13 isoform 2 (UniProt Q8TCT9) -0.032
HNRNPK isoform 2 (UniProt P61978) -0.086
HSPA6 (UniProt P17066) -0.018
HMGN4 (UniProt O00479) 0.386
HSPA8 (UniProt E9PN89) -0.283
IDE (UniProt P14735) -0.073
HNRNPDL (UniProt O14979) 0.055
HUWE1 (UniProt Q7Z6Z7) -0.061
HSPA4L (UniProt O95757) 0.016
HMGN5 (UniProt Q5JSK9) -0.295
HLCS (UniProt P50747) -0.058
HIST2H2BC (UniProt Q6DN03) 0.297
HHEX (UniProt Q03014) 0.084
HMGN3 (UniProt Q15651) -0.125
HTD2 (UniProt P86397) -0.001
HSDL1 (UniProt Q3SXM5) -0.02
HTATIP2 isoform 3 (UniProt Q9BUP3) 0.036

Each target was assayed with NC1(c2ccc(-c3nc4ccn5c(=O)[nH]nc5c4cc3-c3ccccc3)cc2)CCC1 in the same assay as above.
Procedure, shortened: as §1

log2 fold change, inactive:
HIRIP3 (UniProt Q9BW71) -0.046
HMBS (UniProt P08397) 0.016
HMGCL (UniProt P35914) -0.056
HINT1 (UniProt P49773) -0.015
HNRNPA1 (UniProt H0YH80) 0.532
HYOU1, A0A494C039 0.037
HIP1 (UniProt O00291) 0.032
HNRNPUL2 (UniProt Q1KMD3) 0.153
HSD17B4 (UniProt P51659) -0.009
HSPA8 (UniProt P11142) 0.018
HSPA14 (UniProt Q0VDF9) -0.05
HIP1R (UniProt O75146) -0.138
HSD17B12 (UniProt Q53GQ0) -0.049
HMGCS1 (UniProt Q01581) -0.064
HGS (UniProt O14964) -0.12
HMGB1 (UniProt P09429) 0.035
HM13 isoform 2 (UniProt Q8TCT9) -0.061
HNRNPK isoform 2 (UniProt P61978) -0.073
HSPA6 (UniProt P17066) 0.003
HMGN4 (UniProt O00479) 0.504
HSPA8 (UniProt E9PN89) -0.172
IDE (UniProt P14735) -0.06
HNRNPDL (UniProt O14979) 0.274
HUWE1 (UniProt Q7Z6Z7) -0.118
HSPA4L (UniProt O95757) -0.018
HMGN5 (UniProt Q5JSK9) -0.249
HLCS (UniProt P50747) -0.111
HIST2H2BC (UniProt Q6DN03) 0.561
HHEX (UniProt Q03014) -0.054
HMGN3 (UniProt Q15651) 0.047
HTD2 (UniProt P86397) -0.048
HSDL1 (UniProt Q3SXM5) -0.017
HTATIP2 isoform 3 (UniProt Q9BUP3) -0.07
